Results as given in paper PMC10403950.

Target: T1, FLAG-tagged TMIGD1 (transmembrane and immunoglobulin domain-containing protein 1) (UniProt Q6UXZ0)
T1 sequence: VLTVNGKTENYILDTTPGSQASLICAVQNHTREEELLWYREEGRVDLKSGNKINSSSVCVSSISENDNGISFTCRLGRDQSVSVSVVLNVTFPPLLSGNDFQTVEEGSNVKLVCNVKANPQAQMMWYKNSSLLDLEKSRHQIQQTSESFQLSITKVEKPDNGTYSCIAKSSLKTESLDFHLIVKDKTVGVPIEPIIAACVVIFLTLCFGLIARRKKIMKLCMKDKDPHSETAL
Assay: affinity purification with mass spectrometry; anti-FLAG immunoprecipitate (control: anti-IgG) from lysates of NCM460 and Caco2 cells overexpressing FLAG-tagged TMIGD1; LC-MS/MS and proteomics analysis

binding: binds
B1: BAF nuclear assembly factor 1 (BANF1) (protein, UniProt O75531 1-89)
chain: MTTSQKHRDFVAEPMGEKPVGSLAGIGEVLGKKLEERGFDKAYVVLGQFLVLKKDEDLFREWLKDTCGANAKQSRDCFGCLREWCDAFL

Results are given in words; binding and its absence hold for the method and conditions named. In cells and extracts the contact can be indirect. These calls come from enrichment with a bait or labelling near it, and not all partners need be listed. Tags and fused reporters may be left off the sequences shown.
